# Measured values published in PMC12040169 (PLOS Biology, 2025).
# The other results are listed elsewhere or left out.
# System: T1, CTL2-GFP (C. trachomatis L2/434/Bu, GFP-expressing)
# T1 construct: L2/434/Bu, GFP-expressing
# Design: species or system HeLa; Intracellular C. trachomatis growth in HeLa cells, bulk GFP fluorescence relative to DMSO
# Details: bulk GFP, single well; 28.5 h, 10 µM; inhibitor
row,SMILES,% of control remaining [%]
1,Cc1onc(-c2ccccc2)c1C(=O)N1CCN(CCN2CCCC2)CC1 [CBK158558],118.6
2,O=C(O)c1cccc(Sc2cccc(C(F)(F)F)n2)c1 [CBK093592],100
3,NS(=O)(=O)c1ccc(CCNC(=O)c2ccc(C#CC3(O)CCCCC3)cc2)cc1 [CBK263104],111.449
4,CCCC(=O)c1ccc(S(=O)(=O)N2CCN(Cc3cccc(F)c3C)CC2)cc1 [CBK063152],148.624
5,CCOc1ccc(N2C(=O)CC(N3CCN(CCc4ccccn4)CC3)C2=O)cc1 (stereo not shown) [CBK270149],116.295
6,Cc1ccc2oc(-c3ccc(O)cc3)nc2c1 [CBK093878],80.2623
7,O=C(Nc1cccc(NS(=O)(=O)c2ccc(Cl)cc2)c1)c1ccco1 [CBK265956],119.04
8,Cc1cccn2cc(CCNC(=O)CN3Cc4ccccc4C3)nc12 [CBK305166],152.855
9,COc1ccccc1CCC(=O)Nc1cnn(C)c1 [CBK287995],84.9865
10,OC1(c2cccnc2F)CCN(Cc2ccc(F)c(F)c2)CC1 [CBK284370],130.462
11,Cc1csc2c(C3CCN(C(=O)c4cscn4)CC3)nc(C)n12 [CBK285246],138.715
12,COc1ccc(C(=O)c2oc3cc(NC(=O)c4cccnc4)ccc3c2C)cc1 [CBK287652],132.329
13,COc1cc(Cl)c(C)cc1NC(=O)C1CC=CCC1C(=O)O (stereo not shown) [CBK296667],117.762
14,Cc1ccc(CNC(=O)CSc2nc(C)c(C)c(=O)[nH]2)cc1 [CBK287735],121.224
15,NS(=O)(=O)c1ccc(C(=O)N2CCC3(CCN(C(=O)c4ccoc4)C3)C2)cc1 (stereo not shown) [CBK131736],85.5352
16,Cc1cc(=O)n2c3c(cc(S(=O)(=O)NC4CC4)cc13)CCC2 [CBK307572],114.221
17,CCc1ccc(OC)c(S(=O)(=O)NC2CC(C)(C)NC(C)(C)C2)c1 [CBK270098],166.425
18,NS(=O)(=O)c1ccc(CCNC(=O)/C=C/c2ccc([N+](=O)[O-])cc2)cc1 [CBK265683],89.5111
19,CNS(=O)(=O)c1cc(C(=O)O)ccc1OC [CBK270179],92.5026
20,Cc1cc(Cl)cc(Cl)c1S(=O)(=O)Nc1cccc(C(=O)O)c1 [CBK155682],141.717
21,COc1ccc(Cn2c(-c3ccc(OC)c(O)c3)nc3ccccc32)cc1O [CBK263370],100.966
22,COc1cc(CCN2C(=O)c3cccc4cccc(c34)C2=O)c(S(=O)(=O)N2CCCC2)cc1OC [CBK264947],108.351
23,COc1nc2ccccc2nc1CCC(=O)NCc1ccco1 [CBK269866],140.224
24,CCCC(=O)Nc1ccc(-c2csc(N3CCN(C)CC3)n2)cc1 [CBK305025],105.092
25,COc1ccccc1-c1cnc(N)c(N2CCC(C(=O)O)CC2)n1 [CBK064082],186.238
26,COc1ccc(-c2ccc(C(=O)NCCN3CCOCC3)c(N(C)C(C)=O)n2)cc1 [CBK076545],103.712
27,Cc1nc2cc(OCc3nc(C(=O)NCC4CCOC4)co3)ccc2s1 (stereo not shown) [CBK307508],159.139

# Retrieved by structure from the entries so far, 2 records:
row,SMILES,% of control remaining [%]
11,Cc1csc2c(C3CCN(C(=O)c4cscn4)CC3)nc(C)n12 [CBK285246],138.715
8,Cc1cccn2cc(CCNC(=O)CN3Cc4ccccc4C3)nc12 [CBK305166],152.855

# Following part

row,SMILES,% of control remaining [%]
1,Cc1c(F)cccc1CNCC1CCN(C(=O)OC(C)(C)C)CC1 [CBK056717],174.537
2,CC(C)(C)OC(=O)N1CCN(c2ccnc(N)n2)CC1 [CBK003529],119.447
3,COc1ccc(-c2noc(CSc3nnc(-c4c[nH]c5ccccc45)n3C)n2)cc1OC [CBK268644],167.017
4,CCN(CC)C(=O)C1CCCN(C2CCN(C(=O)c3c4ccccc4cc4ccccc34)CC2)C1 (stereo not shown) [CBK066966],127.123
5,CCN(CC)c1c(C)nc2ccc(C(=O)NCCN3CCNC3=O)cn12 [CBK145977],110.77
6,Cc1ccc(C(C)NC(=O)C2CCCN(S(C)(=O)=O)C2)c(C)c1 (stereo not shown) [CBK304349],126.317
7,N#Cc1nc(-c2ccccc2F)oc1NCCCN1CCOCC1 [CBK265881],128.311
8,O=S(=O)(c1ccccc1)c1nc(-c2ccco2)oc1NCCCn1ccnc1 [CBK267670],127.297
9,Cc1ccc2c(c1)cc(C)c1nn(CC(=O)NC(C)C)c(=O)n12 [CBK283874],130.42
10,Nc1ncc(-c2cccc(O)c2)nc1N1CCC(C(=O)O)CC1 [CBK063405],170.681
11,CCOc1ccc(-n2c(C)cc(C(=O)NS(=O)(=O)c3ccc(C)cc3)c2C)cc1 [CBK296084],169.979
12,Cc1cc2c(=O)n(CC(=O)NCc3ccccn3)cnc2s1 [CBK071900],55.2185
13,Fc1ccc(-n2c(C3CC3)n[nH]c2=S)cc1Cl [CBK288364],132.886
14,Cc1cc(C)n(C2CCN(Cc3nc4ccccc4n3C)CC2)n1 [CBK281621],135.885
15,Cc1cccc(-n2ncc3c(=O)n(CC(=O)Nc4ccccc4)cnc32)c1C [CBK287693],114.413
16,Nn1cnn2c(SCC(=O)c3ccccc3)nnc12 [CBK263194],105.437
17,NCCN(C(=O)CCc1cc(C(F)(F)F)cc(C(F)(F)F)c1)c1ccc2c(c1)OCO2 [CBK000701T],56.8442
18,Cn1nccc1C(=O)NC(Cc1cccs1)c1ccccn1 (stereo not shown) [CBK285207],103.504
19,OCCN1CCN(c2nc(-c3cccnc3)cn3ccnc23)CC1 [CBK037887],146.282
20,COc1ccc(C(=O)N(CCC(C)C)Cc2nc(C)c(C)n2Cc2ccccc2Cl)c(OC)c1 [CBK093441],100
21,C=CCn1c(SCc2nnc(-c3ccccc3)o2)nnc1C(O)c1ccccc1 (stereo not shown) [CBK267368],110.087
22,Cc1nc(NC(=O)c2cccc(NC(=O)C3CCCO3)c2)sc1-c1n[nH]c(=S)n1C (stereo not shown) [CBK295341],154.834
23,CCn1ncnc1CN(c1cccc(CO)c1)C1Cc2ccccc2C1 [CBK304173],67.5933
24,CN(CC(=O)Nc1ccccc1N1CCNCC1)C(=O)c1ccccc1 [CBK028287T],64.7169
25,O=[N+]([O-])c1ccc(/C=N/C23CN4CN(CN(C4)C2)C3)s1 [CBK261752],85.6974
26,Cc1ccc(S(=O)(=O)N2CCCN(CC(O)c3ccccc3)CC2)cc1 (stereo not shown) [CBK297911],128.947
27,Fc1ccc2c3c([nH]c2c1)C1(CCN(CCCOCc2ccccc2)CC1)NCC3 [CBK039858],100

# Another view of some results above.
row | SMILES | % of control remaining [%]
5 | CCN(CC)c1c(C)nc2ccc(C(=O)NCCN3CCNC3=O)cn12 [CBK145977] | 110.77
7 | N#Cc1nc(-c2ccccc2F)oc1NCCCN1CCOCC1 [CBK265881] | 128.311
8 | O=S(=O)(c1ccccc1)c1nc(-c2ccco2)oc1NCCCn1ccnc1 [CBK267670] | 127.297

# Later entries.

row,SMILES,% of control remaining [%]
1,CCOC(=O)Cc1nc2cc([N+](=O)[O-])ccc2oc1=O [CBK015603],92.0593
2,CC(C)(C)OC(=O)N1CCC[C@@H](C(=O)c2cccnc2)C1 [CBK284284],83.2666
3,COc1cccc(-n2ccn(C(=O)CCC3CCCC3)c2=O)c1 [CBK106625],106.426
4,COc1ccc(-c2cnc3[nH]c(=O)n([C@H](CO)C(C)C)c3n2)c(OC)c1OC [CBK065008],166.051
5,O=c1[nH]c(CN2CCCCCCC2)nc2ccccc12 [CBK283205],101.955
6,N#Cc1c(C(F)(F)F)cc(-c2ccco2)nc1SCc1ccccn1 [CBK267450],146.149
7,CC1C2CCCN2CCN1Cc1cccc(Oc2ccccc2)c1 (stereo not shown) [CBK262880],125.41
8,Cn1c(C(=O)NCc2ccccc2)cc2ccccc21 [CBK200195],82.7866
9,O=C(c1cccs1)[C@H]1CCCN(C(=O)c2cc(C3CC3)n[nH]2)C1 [CBK282411],141.874
10,Cc1cc(N2CCN(C(=O)Cc3cccs3)CC2)nc(C(C)C)n1 [CBK305562],97.2552
11,COc1nccnc1NS(=O)(=O)c1ccc(Nc2c([N+](=O)[O-])cc([N+](=O)[O-])c3nonc23)cc1 [CBK261441],14.5241
12,CC(C)[C@H]1CN(Cc2ccco2)CCN1C(=O)N1CCCCC1 [CBK284272],102.613
13,O=C(O)/C=C/c1cccc(-c2cn3ccnc3c(N3CCN(c4ccncc4)CC3)n2)c1 [CBK066326],102.93
14,O=[N+]([O-])c1ccc2c(ccn2C2CC(O)C(CO)O2)c1 (stereo not shown) [CBK201163],147.414
15,COC(=O)COc1nccnc1-c1ccc(SC)cc1 [CBK106806],114.038
16,CC1CCCCC1NC(=O)c1ncoc1-c1cccs1 (stereo not shown) [CBK283973],132.107
17,CC1CCN(S(=O)(=O)c2ccc(C(=O)NC(C(=O)O)C(C)O)cc2)CC1 (stereo not shown) [CBK297151],127.261
18,Cn1c(=O)c2[nH]c(N3CCCNCC3)nc2n(C)c1=O [CBK270030],134.304
19,CC(NC(=O)Cc1cccc(F)c1)c1nc2cccnc2n1C(C)C (stereo not shown) [CBK283831],151.781
20,O=c1cc(N2CCN(CC3CCOC3)CC2)c(-c2ccccc2)n[nH]1 (stereo not shown) [CBK306957],128.146
21,CC(NC(=O)OC(C)(C)C)c1nnc(SCC(=O)N(C)C)o1 (stereo not shown) [CBK269932],127.796
22,CCOC(=O)c1cnn2c(O)cc(CN3CCCc4ccccc43)nc12 [CBK305694],113.516
23,O=C(O)c1cccc(S(=O)(=O)N(CCO)CCO)c1 [CBK263221],106.385
24,O=c1c([N+](=O)[O-])c[nH]c2nc(-c3ccncc3)nn12 [CBK288531N],122.955
25,Cc1cc(C(=O)N2CCN(Cc3ccc(F)cc3Cl)CC2)no1 [CBK268126],132.656
